From PubChem BioAssay AID212 (DTP/NCI, 2004)
The list does not hold the whole screen: it gathers tests that were run many times, whatever their T/C, doses with no T/C, and many T/C values between a quarter and a half above the control. Other doses and runs of a compound stand elsewhere. T/C gives the treated animals as a percentage of the vehicle group. Schedule codes are those of the source, taken here to give the interval after Q, in days (D) or hours (H), and the number of doses after X. Some T/C values are followed by the survivors on the day toxicity was checked, most often the fifth; where none is given, no animal had died by that day. Some entries give survivors of the animals treated and no T/C: the source files T/C as zero there, which appears to mark a toxic dose or a test without result, not a measured value. Counts of survivors are from the toxicity check (mostly the fifth day) where no day follows; animals may have died later. Some entries hold several experiments; the results are listed from low to high. For survival time, the PubChem record calls one and a half times the control and up active, and a quarter to a half above the control has no call in these data; cut-offs in other NCI protocols can differ.

System: BDF1 mice, colon carcinoma 38 sc, T/C %
Test: NCI In Vivo Anticancer Drug Screen. Data for tumor model Colon Carcinoma 38 (subcutaneous) in B6D2F1 (BDF1) mice
In short: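 T/C readout: treated group (T) measurement over vehicle control group (C) measurement. Endpoint is survival or tumor size in mice bearing a transplanted tumor.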

[1] = T/C endpoint: median tumor weight (est.), dose: 100.0 mg/kg/injection, schedule: Q07DX002 (ip), vehicle: saline with Tween-80, higher T/C = larger tumour
[2] = T/C endpoint: median tumor weight (est.), dose: 6.25 mg/kg/injection, schedule: Q07DX002 (ip), vehicle: saline, evaluated on day 20, higher T/C = larger tumour
[3] = T/C endpoint: median tumor weight (est.), dose: 200.0 mg/kg/injection, schedule: Q07DX002 (ip), vehicle: saline, higher T/C = larger tumour
[4] = T/C endpoint: median tumor weight (est.), dose: 400.0 mg/kg/injection, schedule: Q07DX002 (ip), vehicle: saline, higher T/C = larger tumour
[5] = T/C endpoint: median tumor weight (est.), dose: 800.0 mg/kg/injection, schedule: Q07DX002 (ip), vehicle: saline, higher T/C = larger tumour
[6] = T/C endpoint: median tumor weight (est.), dose: 25.0 mg/kg/injection, schedule: Q07DX002 (ip), vehicle: saline, evaluated on day 20, higher T/C = larger tumour
[7] = T/C endpoint: median tumor weight (est.), dose: 200.0 mg/kg/injection, schedule: Q07DX002 (ip), vehicle: saline with Tween-80, higher T/C = larger tumour
[8] = T/C endpoint: median tumor weight (est.), dose: 400.0 mg/kg/injection, schedule: Q07DX002 (ip), vehicle: saline with Tween-80, higher T/C = larger tumour

Nc1ccn(C2CC(O)C(CO)O2)c(=O)n1 (centres undefined) was tested, and the T/C (T/C endpoint: median tumor weight (est.), dose: 168.75 mg/kg/injection, schedule: Q07DX002 (ip), vehicle: water, evaluated on day 20, higher T/C = larger tumour) was 128 % of control [9 of 10 alive on day 20] and the T/C (T/C endpoint: median tumor weight (est.), dose: 675.0 mg/kg/injection, schedule: Q07DX002 (ip), vehicle: water, evaluated on day 20, higher T/C = larger tumour) was 129 % of control.
N#CCCN(C(=S)Nc1cccc(C(F)(F)F)c1)C1CCCCC1 was tested, and the survivor count (T/C endpoint: median tumor weight (est.), dose: 800.0 mg/kg/injection, schedule: Q07DX002 (ip), vehicle: Klucel (hydroxypropylcellulose) (HPC), higher T/C = larger tumour) was 0 of 10 on day 20 and the survivor count (T/C endpoint: median tumor weight (est.), dose: 1600.0 mg/kg/injection, schedule: Q07DX002 (ip), vehicle: Klucel (hydroxypropylcellulose) (HPC), higher T/C = larger tumour) was 0 of 10 on day 20.
O/N=C/c1ccccc1O.O/N=C/c1ccccc1O.[Cu] was tested, and the survivor count [1] was 2 of 10 on day 20 and 6 of 10 on day 20.
For O=C(NO)c1ccc(O)c(O)c1, the survivor count (T/C endpoint: median tumor weight (est.), dose: 800.0 mg/kg/injection, schedule: Q07DX002 (ip), vehicle: water, higher T/C = larger tumour) was 1 of 10 on day 20 and the survivor count (T/C endpoint: median tumor weight (est.), dose: 1600.0 mg/kg/injection, schedule: Q07DX002 (ip), vehicle: water, higher T/C = larger tumour) was 0 of 10 on day 20.
CCN(CC)CCC(=O)c1ccccc1 was tested, and the T/C [2] was 142 % of control, the T/C (T/C endpoint: median tumor weight (est.), dose: 100.0 mg/kg/injection, schedule: Q07DX002 (ip), vehicle: saline, evaluated on day 20, higher T/C = larger tumour) was 139 % of control and the T/C (T/C endpoint: median tumor weight (est.), dose: 100.0 mg/kg/injection, schedule: Q07DX002 (ip), vehicle: suspension in saline, evaluated on day 20, higher T/C = larger tumour) was 135 % of control. The survivor count [3] was 0 of 10 on day 20 and 3 of 10 on day 20 and the survivor count (T/C endpoint: median tumor weight (est.), dose: 200.0 mg/kg/injection, schedule: Q07DX002 (ip), vehicle: suspension in saline, higher T/C = larger tumour) was 0 of 10 on day 20.
With CCN(CC)CCNc1ccc(CO)c2sc3ccccc3c(=O)c12 the survivor count (T/C endpoint: median tumor weight (est.), dose: 200.0 mg/kg/injection, schedule: Q07DX003 (ip), vehicle: clinical formulation, higher T/C = larger tumour) was 2 of 10 on day 20.
With N=C1CCCS1 the survivor count [3] was 6 of 10 on day 20, the survivor count [4] was 0 of 10 on day 20 and the survivor count [5] was 0 of 10 on day 20.
In the case of COc1ccc(C[C@H](N)C(=O)NC2C(CO)OC(n3cnc4c(N(C)C)ncnc43)C2O)cc1 (some centres undefined), the survivor count [4] was 6 of 10 on day 20 and the survivor count (T/C endpoint: median tumor weight (est.), dose: 768.0 mg/kg/injection, schedule: Q07DX002 (ip), vehicle: saline, higher T/C = larger tumour) was 0 of 10 on day 20 and 1 of 10 on day 20.
N=C(N)SCc1cccc2c(=O)cc(-c3ccccc3)oc12 was tested, and the survivor count [5] was 6 of 10 on day 20.
With CCCCCCCC(=O)N/N=C(\CO)[C@]1(O)Cc2c(O)c3c(c(O)c2[C@@H](OC2CC(N)C(O)C(C)O2)C1)C(=O)c1c(OC)cccc1C3=O (some centres undefined) the T/C (T/C endpoint: median survival time, dose: 78.0 mg/kg/injection, schedule: Q07DX002 (sc), vehicle: saline, higher T/C = longer survival) was 128 % of control, the survivor count (T/C endpoint: median tumor weight (est.), dose: 108.0 mg/kg/injection, schedule: Q07DX002 (ip), vehicle: distilled water + Tween-80, higher T/C = larger tumour) was 0 of 10 on day 20 and 4 of 10 on day 20 and the survivor count (T/C endpoint: median tumor weight (est.), dose: 108.0 mg/kg/injection, schedule: Q07DX002 (ip), vehicle: suspension in saline, higher T/C = larger tumour) was 0 of 10 on day 20. The survivor count (T/C endpoint: median tumor weight (est.), dose: 216.0 mg/kg/injection, schedule: Q07DX002 (ip), vehicle: distilled water + Tween-80, higher T/C = larger tumour) was 0 of 10 on day 20.
With NC(=S)N/N=C\c1ncccc1OCc1cccc(N)c1 the survivor count (T/C endpoint: median tumor weight (est.), dose: 800.0 mg/kg/injection, schedule: Q07DX002 (ip), vehicle: distilled water + Tween-80, higher T/C = larger tumour) was 3 of 10 on day 20.
With C=CS(C=C)=NS(=O)(=O)c1ccc(C)cc1 the T/C (T/C endpoint: median tumor weight (est.), dose: 3.12 mg/kg/injection, schedule: Q07DX002 (ip), vehicle: Klucel (hydroxypropylcellulose) (HPC), evaluated on day 20, higher T/C = larger tumour) was 126 % of control.
For CCCCCCCCCCCCCCC/C([O-])=N/[N+](C)(C)CC(C)O (centres undefined), the T/C (T/C endpoint: median tumor weight (est.), dose: 50.0 mg/kg/injection, schedule: Q01DX001 (ip), vehicle: saline, evaluated on day 20, higher T/C = larger tumour) was 140 % of control [8 of 10 alive on day 20], the T/C (T/C endpoint: median tumor weight (est.), dose: 100.0 mg/kg/injection, schedule: Q01DX001 (ip), vehicle: saline, evaluated on day 20, higher T/C = larger tumour) was 148 % of control [8 of 10 alive on day 20] and the survivor count (T/C endpoint: median tumor weight (est.), dose: 800.0 mg/kg/injection, schedule: Q01DX001 (ip), vehicle: saline, higher T/C = larger tumour) was 3 of 10 on day 20.
With CC1CN1P1(N2CC2C)=NP(N2CC2C)(N2CC2C)=NP(N2CC2C)(N2CC2C)=N1 (centres undefined) the T/C [2] was 134 % of control, the T/C (T/C endpoint: median tumor weight (est.), dose: 12.5 mg/kg/injection, schedule: Q07DX002 (ip), vehicle: saline, evaluated on day 20, higher T/C = larger tumour) was 128 % of control and the T/C [6] was 131 % of control. The T/C (T/C endpoint: median tumor weight (est.), dose: 50.0 mg/kg/injection, schedule: Q07DX002 (ip), vehicle: saline, evaluated on day 20, higher T/C = larger tumour) was 128 % of control and the survivor count [3] was 0 of 10 on day 20 and 3 of 10 on day 20.
In the case of C[N+](C)(C)c1ncnc2nc[nH]c12, the survivor count [4] was 4 of 10 on day 20.
With C#CCNC1=C(C)C(=O)C2=C(C1=O)[C@H](COC(N)=O)[C@]1(OC)[C@@H]3N[C@@H]3CN21 the survivor count (T/C endpoint: median tumor weight (est.), dose: 24.0 mg/kg/injection, schedule: Q07DX002 (ip), vehicle: distilled water + Tween-80, higher T/C = larger tumour) was 0 of 10 on day 20, the survivor count (T/C endpoint: median tumor weight (est.), dose: 25.0 mg/kg/injection, schedule: Q01DX001 (ip), vehicle: distilled water + Tween-80, higher T/C = larger tumour) was 0 of 10 on day 20 and the survivor count (T/C endpoint: median tumor weight (est.), dose: 50.0 mg/kg/injection, schedule: Q01DX001 (ip), vehicle: distilled water + Tween-80, higher T/C = larger tumour) was 0 of 10 on day 20. The survivor count (T/C endpoint: median tumor weight (est.), dose: 100.0 mg/kg/injection, schedule: Q01DX001 (ip), vehicle: distilled water + Tween-80, higher T/C = larger tumour) was 0 of 10 on day 20 and the survivor count (T/C endpoint: median tumor weight (est.), dose: 200.0 mg/kg/injection, schedule: Q01DX001 (ip), vehicle: distilled water + Tween-80, higher T/C = larger tumour) was 0 of 10 on day 20.
In the case of CS(=O)(=O)CS(=O)(=O)OCCCl, the T/C [6] was 136 % of control, the survivor count (T/C endpoint: median tumor weight (est.), dose: 50.0 mg/kg/injection, schedule: Q07DX002 (ip), vehicle: saline with Tween-80, higher T/C = larger tumour) was 6 of 10 on day 20 and the survivor count [1] was 0 of 10 on day 20. The survivor count [7] was 0 of 10 on day 20 and the survivor count [8] was 0 of 10 on day 20.
CCC(=O)N(C)[C@@H](C)C(=O)O[C@H]1CC(=O)N(C)c2cc(cc(OC)c2Cl)C/C(C)=C/C=C[C@@H](OC)[C@@]2(O)C[C@H](OC(=O)N2)[C@@H](C)[C@@H]2O[C@@]12C was tested, and the T/C (T/C endpoint: median tumor weight (est.), dose: 15.0 micrograms/kg/injection, schedule: Q07DX002 (ip), vehicle: saline + alcohol, evaluated on day 20, higher T/C = larger tumour) was 141 % of control.
C=C1C(=O)OCC1(C(=O)OCC)C(=O)OCC was tested, and the T/C (T/C endpoint: median tumor weight (est.), dose: 25.0 mg/kg/injection, schedule: Q07DX002 (ip), vehicle: saline with Tween-80, evaluated on day 20, higher T/C = larger tumour) was 125 % of control [8 of 10 alive on day 20], the survivor count [1] was 3 of 10 on day 20 and the survivor count [7] was 0 of 10 on day 20. For the same compound, the survivor count [8] was 0 of 10 on day 20.
